This is one part of the list.
The targets below were run with Cc1cc(ccc1-c1ccccc1)C(=O)N1CCCN(CC1)C(=O)CCl [compound 10] (assay: probe-labelled cysteine peptide fold change vs DMSO (competition) (log2 fold change); higher = less target engagement (more negative = stronger competition)). Details: 10 µM; THP-1; incubation time: 4 h.
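Further: competitive profiling in live THP-1 cells: cysteine peptides tagged with an iodoacetamide desthiobiotin (IA-DTB) probe, intensity after compound treatment relative to DMSO-treated cells.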

Amino acid sequences for entries named in this document (tags omitted). A change or cut given only in a name is not applied to a line headed by its entry.
UniProt Q5TDH0: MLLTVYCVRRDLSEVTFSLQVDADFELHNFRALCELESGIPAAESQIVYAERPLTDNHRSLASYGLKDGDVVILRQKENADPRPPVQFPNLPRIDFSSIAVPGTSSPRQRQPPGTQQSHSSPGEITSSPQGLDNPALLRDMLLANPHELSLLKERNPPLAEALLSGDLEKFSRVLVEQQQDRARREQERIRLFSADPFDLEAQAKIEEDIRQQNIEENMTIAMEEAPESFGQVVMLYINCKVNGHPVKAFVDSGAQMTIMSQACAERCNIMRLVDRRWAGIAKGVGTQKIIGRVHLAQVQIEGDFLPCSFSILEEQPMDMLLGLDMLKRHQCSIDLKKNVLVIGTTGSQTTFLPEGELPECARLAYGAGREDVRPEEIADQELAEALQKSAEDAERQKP
UniProt O00571: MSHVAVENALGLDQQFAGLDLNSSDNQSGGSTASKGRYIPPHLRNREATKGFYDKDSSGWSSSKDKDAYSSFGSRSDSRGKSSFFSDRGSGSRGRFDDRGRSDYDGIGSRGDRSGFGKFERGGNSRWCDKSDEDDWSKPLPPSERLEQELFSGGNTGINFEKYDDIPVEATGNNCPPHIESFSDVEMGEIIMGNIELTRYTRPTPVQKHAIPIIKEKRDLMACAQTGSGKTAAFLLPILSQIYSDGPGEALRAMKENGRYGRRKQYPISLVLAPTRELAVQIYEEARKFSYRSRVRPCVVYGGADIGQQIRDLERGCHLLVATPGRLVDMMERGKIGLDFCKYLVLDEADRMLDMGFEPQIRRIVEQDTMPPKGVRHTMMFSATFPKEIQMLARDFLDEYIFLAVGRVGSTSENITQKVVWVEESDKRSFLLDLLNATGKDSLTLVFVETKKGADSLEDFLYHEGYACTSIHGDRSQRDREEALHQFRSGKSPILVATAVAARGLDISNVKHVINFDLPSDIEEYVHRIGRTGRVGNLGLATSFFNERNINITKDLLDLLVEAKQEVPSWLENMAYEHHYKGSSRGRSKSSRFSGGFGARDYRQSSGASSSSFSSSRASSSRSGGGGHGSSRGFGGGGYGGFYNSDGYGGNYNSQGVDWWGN
UniProt Q92499: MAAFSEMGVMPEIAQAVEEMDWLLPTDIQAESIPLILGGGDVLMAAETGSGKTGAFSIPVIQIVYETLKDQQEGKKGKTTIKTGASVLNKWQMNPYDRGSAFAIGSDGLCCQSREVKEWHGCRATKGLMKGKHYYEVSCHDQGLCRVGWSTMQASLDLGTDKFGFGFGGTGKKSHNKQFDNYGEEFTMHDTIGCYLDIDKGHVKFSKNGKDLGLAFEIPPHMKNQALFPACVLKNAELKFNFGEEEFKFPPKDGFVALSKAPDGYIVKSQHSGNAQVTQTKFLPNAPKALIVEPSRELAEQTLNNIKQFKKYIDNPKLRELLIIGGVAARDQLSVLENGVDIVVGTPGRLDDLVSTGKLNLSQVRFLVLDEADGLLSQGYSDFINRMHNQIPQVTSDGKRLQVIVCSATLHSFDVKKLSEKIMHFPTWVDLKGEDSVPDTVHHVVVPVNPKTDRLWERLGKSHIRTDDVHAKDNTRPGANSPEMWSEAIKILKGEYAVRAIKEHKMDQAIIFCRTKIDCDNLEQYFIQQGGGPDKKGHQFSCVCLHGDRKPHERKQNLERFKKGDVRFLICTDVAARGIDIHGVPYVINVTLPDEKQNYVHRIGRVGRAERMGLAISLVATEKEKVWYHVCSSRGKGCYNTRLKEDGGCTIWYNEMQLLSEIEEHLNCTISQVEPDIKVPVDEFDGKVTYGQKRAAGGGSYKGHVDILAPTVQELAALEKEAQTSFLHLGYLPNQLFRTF
UniProt Q9H8H2: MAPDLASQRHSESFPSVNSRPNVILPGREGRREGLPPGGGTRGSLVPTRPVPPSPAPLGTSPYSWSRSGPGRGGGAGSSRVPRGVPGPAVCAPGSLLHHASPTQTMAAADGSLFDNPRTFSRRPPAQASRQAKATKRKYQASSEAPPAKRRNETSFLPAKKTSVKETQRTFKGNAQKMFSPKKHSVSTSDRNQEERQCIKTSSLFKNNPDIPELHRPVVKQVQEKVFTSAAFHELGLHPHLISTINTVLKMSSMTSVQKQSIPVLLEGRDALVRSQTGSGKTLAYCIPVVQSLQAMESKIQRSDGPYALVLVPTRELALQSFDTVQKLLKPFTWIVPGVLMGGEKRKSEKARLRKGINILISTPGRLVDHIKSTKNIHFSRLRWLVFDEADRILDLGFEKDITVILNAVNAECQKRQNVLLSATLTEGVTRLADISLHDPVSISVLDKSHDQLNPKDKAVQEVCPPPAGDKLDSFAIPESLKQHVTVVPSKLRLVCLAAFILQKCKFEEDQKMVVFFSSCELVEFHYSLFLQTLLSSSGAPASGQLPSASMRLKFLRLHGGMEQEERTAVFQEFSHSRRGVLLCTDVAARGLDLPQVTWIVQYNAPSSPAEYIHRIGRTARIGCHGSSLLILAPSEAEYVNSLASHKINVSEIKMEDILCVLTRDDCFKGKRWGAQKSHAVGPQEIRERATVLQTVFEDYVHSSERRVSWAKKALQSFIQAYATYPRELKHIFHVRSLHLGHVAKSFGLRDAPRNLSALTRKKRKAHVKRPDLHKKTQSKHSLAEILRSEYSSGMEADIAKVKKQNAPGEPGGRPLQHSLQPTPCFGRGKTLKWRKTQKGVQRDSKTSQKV
UniProt Q86XP3: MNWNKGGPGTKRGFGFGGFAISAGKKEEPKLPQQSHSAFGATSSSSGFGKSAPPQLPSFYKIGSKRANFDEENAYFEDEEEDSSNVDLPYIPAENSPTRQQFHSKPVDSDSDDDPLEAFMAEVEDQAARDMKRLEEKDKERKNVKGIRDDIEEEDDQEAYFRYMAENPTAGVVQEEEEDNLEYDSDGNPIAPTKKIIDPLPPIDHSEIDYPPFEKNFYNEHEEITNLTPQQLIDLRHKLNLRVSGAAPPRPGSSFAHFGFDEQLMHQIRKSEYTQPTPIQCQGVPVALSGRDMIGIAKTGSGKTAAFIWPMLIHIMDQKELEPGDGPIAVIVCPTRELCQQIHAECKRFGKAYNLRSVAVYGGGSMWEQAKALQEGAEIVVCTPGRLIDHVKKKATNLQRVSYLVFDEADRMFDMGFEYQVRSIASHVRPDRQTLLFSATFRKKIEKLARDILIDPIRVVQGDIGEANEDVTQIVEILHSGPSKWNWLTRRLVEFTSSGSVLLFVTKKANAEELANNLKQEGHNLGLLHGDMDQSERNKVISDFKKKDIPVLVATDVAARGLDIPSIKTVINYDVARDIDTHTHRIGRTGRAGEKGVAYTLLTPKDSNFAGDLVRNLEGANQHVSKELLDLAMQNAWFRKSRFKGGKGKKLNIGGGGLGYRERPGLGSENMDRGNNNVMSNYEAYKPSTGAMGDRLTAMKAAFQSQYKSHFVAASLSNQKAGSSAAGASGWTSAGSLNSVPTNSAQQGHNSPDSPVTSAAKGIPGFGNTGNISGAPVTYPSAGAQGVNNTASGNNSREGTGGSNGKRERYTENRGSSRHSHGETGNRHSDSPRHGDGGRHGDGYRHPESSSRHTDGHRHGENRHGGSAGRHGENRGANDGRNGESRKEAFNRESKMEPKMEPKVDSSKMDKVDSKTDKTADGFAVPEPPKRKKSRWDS
UniProt A2RUS2: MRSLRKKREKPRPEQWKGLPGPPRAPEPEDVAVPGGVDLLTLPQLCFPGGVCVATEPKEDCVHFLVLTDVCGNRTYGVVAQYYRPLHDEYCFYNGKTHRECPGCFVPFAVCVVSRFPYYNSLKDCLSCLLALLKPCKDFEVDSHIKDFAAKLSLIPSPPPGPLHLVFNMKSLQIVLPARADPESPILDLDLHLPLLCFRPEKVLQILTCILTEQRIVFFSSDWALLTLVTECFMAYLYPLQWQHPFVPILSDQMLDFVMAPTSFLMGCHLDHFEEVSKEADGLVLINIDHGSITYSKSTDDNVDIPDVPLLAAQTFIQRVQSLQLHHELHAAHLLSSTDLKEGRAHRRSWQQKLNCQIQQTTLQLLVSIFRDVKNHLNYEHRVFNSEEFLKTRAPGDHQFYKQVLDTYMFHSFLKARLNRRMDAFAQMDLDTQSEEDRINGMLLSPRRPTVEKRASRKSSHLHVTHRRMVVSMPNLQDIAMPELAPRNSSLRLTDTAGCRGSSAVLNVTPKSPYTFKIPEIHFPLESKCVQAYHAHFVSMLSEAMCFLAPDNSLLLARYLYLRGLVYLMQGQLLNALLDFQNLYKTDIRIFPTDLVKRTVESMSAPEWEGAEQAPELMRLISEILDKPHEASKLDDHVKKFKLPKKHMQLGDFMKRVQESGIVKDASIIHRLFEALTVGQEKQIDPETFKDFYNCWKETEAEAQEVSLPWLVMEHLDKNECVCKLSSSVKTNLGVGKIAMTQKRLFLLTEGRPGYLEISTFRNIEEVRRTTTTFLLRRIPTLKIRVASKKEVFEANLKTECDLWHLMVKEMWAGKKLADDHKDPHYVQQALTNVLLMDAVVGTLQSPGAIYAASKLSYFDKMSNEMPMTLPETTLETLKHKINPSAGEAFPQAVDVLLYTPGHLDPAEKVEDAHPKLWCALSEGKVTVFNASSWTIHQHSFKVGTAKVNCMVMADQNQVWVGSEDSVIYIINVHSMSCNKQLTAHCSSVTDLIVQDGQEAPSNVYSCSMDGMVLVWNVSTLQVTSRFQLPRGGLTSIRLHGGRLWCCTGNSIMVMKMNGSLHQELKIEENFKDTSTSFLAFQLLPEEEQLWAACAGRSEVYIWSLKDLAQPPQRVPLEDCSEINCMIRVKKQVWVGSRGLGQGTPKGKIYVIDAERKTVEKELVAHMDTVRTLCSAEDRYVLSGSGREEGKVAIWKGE
UniProt Q7L014: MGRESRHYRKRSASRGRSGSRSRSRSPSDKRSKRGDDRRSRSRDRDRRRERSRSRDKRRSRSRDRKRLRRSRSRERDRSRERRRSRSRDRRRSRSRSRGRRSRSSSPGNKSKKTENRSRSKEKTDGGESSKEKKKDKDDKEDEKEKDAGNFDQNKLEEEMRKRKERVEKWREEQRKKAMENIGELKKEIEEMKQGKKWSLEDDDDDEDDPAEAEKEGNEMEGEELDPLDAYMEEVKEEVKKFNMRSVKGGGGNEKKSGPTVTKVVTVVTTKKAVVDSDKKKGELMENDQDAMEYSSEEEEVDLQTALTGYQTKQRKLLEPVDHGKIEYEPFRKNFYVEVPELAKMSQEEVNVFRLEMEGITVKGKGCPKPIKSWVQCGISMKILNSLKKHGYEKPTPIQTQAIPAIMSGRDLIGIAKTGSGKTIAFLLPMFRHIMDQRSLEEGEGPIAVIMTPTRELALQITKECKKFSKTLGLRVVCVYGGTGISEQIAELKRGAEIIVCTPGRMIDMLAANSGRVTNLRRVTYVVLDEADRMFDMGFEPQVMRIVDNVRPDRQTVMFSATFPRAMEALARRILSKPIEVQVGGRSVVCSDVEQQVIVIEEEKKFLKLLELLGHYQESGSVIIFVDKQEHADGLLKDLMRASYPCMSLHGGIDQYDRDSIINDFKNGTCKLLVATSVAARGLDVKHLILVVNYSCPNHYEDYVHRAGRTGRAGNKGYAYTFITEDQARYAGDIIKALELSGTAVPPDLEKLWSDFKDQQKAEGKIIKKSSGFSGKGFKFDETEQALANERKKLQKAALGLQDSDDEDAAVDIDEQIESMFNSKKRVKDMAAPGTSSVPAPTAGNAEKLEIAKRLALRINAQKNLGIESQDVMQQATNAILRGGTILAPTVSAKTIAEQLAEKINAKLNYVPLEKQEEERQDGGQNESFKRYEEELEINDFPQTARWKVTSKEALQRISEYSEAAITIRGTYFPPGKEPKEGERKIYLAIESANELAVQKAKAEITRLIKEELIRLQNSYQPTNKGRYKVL
UniProt Q7Z3D6: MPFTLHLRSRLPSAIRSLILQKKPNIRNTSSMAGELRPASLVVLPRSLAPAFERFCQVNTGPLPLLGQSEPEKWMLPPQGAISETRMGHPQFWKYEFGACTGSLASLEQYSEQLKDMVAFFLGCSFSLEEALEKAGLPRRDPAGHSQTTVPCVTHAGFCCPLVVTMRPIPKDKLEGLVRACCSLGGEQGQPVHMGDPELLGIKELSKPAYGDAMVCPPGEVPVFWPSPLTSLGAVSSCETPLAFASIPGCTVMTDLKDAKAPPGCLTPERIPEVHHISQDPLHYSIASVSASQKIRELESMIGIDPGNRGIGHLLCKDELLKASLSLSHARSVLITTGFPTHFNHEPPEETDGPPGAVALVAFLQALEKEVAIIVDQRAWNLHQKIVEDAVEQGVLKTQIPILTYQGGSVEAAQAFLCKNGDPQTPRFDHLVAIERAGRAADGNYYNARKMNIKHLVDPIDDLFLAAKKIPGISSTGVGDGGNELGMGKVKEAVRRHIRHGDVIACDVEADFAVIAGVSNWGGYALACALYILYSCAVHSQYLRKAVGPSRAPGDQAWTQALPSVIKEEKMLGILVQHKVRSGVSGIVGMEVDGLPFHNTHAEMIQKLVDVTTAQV

Target | probe-labelled cysteine peptide fold change
DDI2_Q5TDH0_34_ALCELESGIPAAESQIVYAERPLTDNHR (UniProt Q5TDH0) | 0.0206
DDX3X_O00571_298_VRPCVVYGGADIGQQIR (UniProt O00571) | 0.0509
DDX1_Q92499_519_IDCDNLEQYFIQQGGGPDKK (UniProt Q92499) | -0.0404
DEPTOR_Q8TB45_102_GIIHHVCDEHK (UniProt Q8TB45) | -0.156
DDX31_Q9H8H2_413_DITVILNAVNAECQK (UniProt Q9H8H2) | 0.0501
DGKZ_Q13574_330_IVVHTPCIEQLEK (UniProt Q13574) | 0.234
DDX42_Q86XP3_339+346_ELCQQIHAECK (UniProt Q86XP3) | -0.0649
DDX1_Q92499_406_RLQVIVCSATLHSFDVK (UniProt Q92499) | -0.0399
DGCR8_Q8WYQ5_627_AGLLSPYQILHECLK (UniProt Q8WYQ5) | 0.505
DDX59_Q5T1V6_345_QSSVELCGVK (UniProt Q5T1V6) | 0.0664
DENR_O43583_132_VCGLATFEIDLK (UniProt O43583) | 0.187
DDX42_Q86XP3_333_ELEPGDGPIAVIVCPTR (UniProt Q86XP3) | -0.0523
DDX39A_O00148_197_HFVLDECDK (UniProt O00148) | 0.0709
DGKQ_P52824_171_QCHQDGHQDHDTHHHHWR (UniProt P52824) | 0.222
DENND1B_Q6P3S1_52_FCFPFDVER (UniProt Q6P3S1) | 0.113
DENND3_A2RUS2_499_LTDTAGCR (UniProt A2RUS2) | -0.198
DDX39A_O00148_62+86_AIVDCGFEHPSEVQHECIPQAILGMDVLCQAK (UniProt O00148) | 0.358
DDX60_Q8IY21_1591_VAISPFVCLSGNFDDDLLRLETPNHVTLGTIGVNR (UniProt Q8IY21) | -0.0822

Target | probe-labelled cysteine peptide fold change
DDX31_Q9H8H2_624_IGCHGSSLLILAPSEAEYVNSLASHK (UniProt Q9H8H2) | 0.0659
DDX46_Q7L014_646_ASYPCMSLHGGIDQYDRDSIINDFK (UniProt Q7L014) | -0.0189
DDX31_Q9H8H2_464_AVQEVCPPPAGDK (UniProt Q9H8H2) | 0.042
DERA_Q9Y315_118_AAGCNIPVASVAAGFPAGQTHLK (UniProt Q9Y315) | 0.00564
DDX39A_O00148_299_CMALAQLLVEQNFPAIAIHR (UniProt O00148) | -0.0992
DDX60L_Q5H9U9_1671_DFAFNIQAISDSLSELCENKR (UniProt Q5H9U9) | 0.277
DDX24_Q9GZR7_620_VLDIMPLTLHACMHQK (UniProt Q9GZR7) | -0.021
DDX21_Q9NR30_378_KDSEDNPQTLLFSATCPHWVFNVAK (UniProt Q9NR30) | -0.046
DDX17_Q92841_199_GGDVCPKPVFAFHHANFPQYVMDVLMDQHFTEPTPIQCQGFPLALSGR (UniProt Q92841) | 0.000804
DGLUCY_Q7Z3D6-2_165_TTVPCVTHAGFCCPLVVTMRPIPK (UniProt Q7Z3D6) | 0.017
DGLUCY_Q7Z3D6_316_GIGHLLCK (UniProt Q7Z3D6) | -0.0414
DDX51_Q8N8A6_187_WLAEPNCVR (UniProt Q8N8A6) | -0.15
DENND3_A2RUS2_723_NECVCK (UniProt A2RUS2) | 0.0378
DENND3_A2RUS2_801_TECDLWHLMVK (UniProt A2RUS2) | -0.103
DDX59_Q5T1V6_208_QQLGILVQGQEVTRPIIDFEHCSLPEVLNHNLKK (UniProt Q5T1V6) | -0.0669
DDX46_Q7L014_646_ASYPCMSLHGGIDQYDR (UniProt Q7L014) | -0.0173
DDX55_Q8NHQ9_161_AEGLDLASCVR (UniProt Q8NHQ9) | 0.187

From the supplement of paper PMC12067093, “Discovery and optimisation of a covalent ligand for TRIM25 and its application to targeted protein ubiquitination” (Chemical Science, 2025)
